Patent US10590100B2, “Benzofuran derivatives for the treatment of CNS and other disorders” (WARNER BABCOCK INSTITUTE FOR GREEN CHEMISTRY, priority 2015, dated 2020)

Test: Test compound fluorescence in the same range as Bis-ANS fluorescence
Type: physicochemical
Details: 60 μM test compounds, 390 nm excitation/490 nm emission, after addition of zinc(II) sulfate

| SMILES | Fluorescence change with Zn2+ (derivatives with slight fluorescence) | Fluorescence change with Zn2+ (derivatives with significant fluorescence) |
| --- | --- | --- |
| N#CC(=Cc1ccc(-c2cc3ccc(N(c4ccccc4)c4ccccc4)cc3o2)cc1)C(=O)O [BC-147, 2-cyano-3-(4-(6-(diphenylamino)benzofuran-2-yl)phenyl)acrylic acid] | Quenched |  |
| O=C(O)/C=C/c1ccc2cc(-c3ccc(N(c4ccccc4)c4ccccc4)cc3)oc2c1 [BC-153, (E)-3-(2-(4-(diphenylamino)phenyl)benzofuran-6-yl)acrylic acid] |  | Increase |
| NC(=O)C(=Cc1ccc2cc(-c3ccc(N(c4ccccc4)c4ccccc4)cc3)oc2c1)C(N)=O [BC-155, 2-((2-(4-(diphenylamino)phenyl)benzofuran-6-yl)methylene)malonamide] | No change |  |
| COc1ccc(N(c2ccc(OC)cc2)c2ccc(-c3cc4ccc(C=CC#N)cc4o3)cc2)cc1 [BC-157, 3-(2-(4-(bis(4-methoxyphenyl)amino)phenyl)benzofuran-6-yl)acrylonitrile] |  | Slight increase |
| COc1ccc(-c2ccc(-c3cc4ccc(C=C(C#N)C(=O)O)cc4o3)cc2)cc1OC [BC-165, 2-cyano-3-(2-(3′,4′-dimethoxy-[1,1′-biphenyl]-4-yl)benzofuran-6-yl)acrylic acid] |  | Significant increase |
| CC(C)(C)c1ccc(-c2cc3ccc(C=C(C#N)C(=O)O)cc3o2)cc1 [BC-167, 3-(2-(4-(tert-butyl)phenyl)benzofuran-6-yl)-2-cyanoacrylic acid] |  | Significant increase |
| COc1ccc(-c2cc3ccc(C=C(C#N)C(=O)O)cc3o2)cc1 [BC-168, 2-cyano-3-(2-(4-methoxyphenyl)benzofuran-6-yl)acrylic acid] |  | Significant increase |
| COC(=O)/C=C/c1ccc2cc(-c3ccc(N(c4ccccc4)c4ccccc4)cc3)oc2c1 [BC-170, methyl (E)-3-(2-(4-(diphenylamino)phenyl)benzofuran-6-yl)acrylate] |  | No change |
| N#CC(=Cc1ccc2cc(-c3ccc(Oc4ccccc4)cc3)oc2c1)C(=O)O [BC-171, 2-cyano-3-(2-(4-phenoxyphenyl)benzofuran-6-yl)acrylic acid] |  | No change |
